PMC7109600
These are yes or no findings as the source states them, for the method shown. Binding seen in cells or lysates may run through a third protein. Some results given as binding are weak or reduced against the parent protein; the word gives no strength.

Target: SFB-RNF40 (full-length human RNF40), expressed in HCT116 cells (human) (UniProt O75150)
Assay: co-IP; HCT116 cells transfected with HA-p53 and SFB-RNF20 or SFB-RNF40; lysed with NETN300 buffer; IP and western blot, both directions

binding: binds
Substance: HA-p53 (human p53 in pCMV-HA), expressed in HCT116 cells (from UniProt P04637 1-393)
